## Library screen at single concentrations

Amino acid sequences for entries named in this document (tags omitted). Residues count along the entry.
UniProt Q4DA54, 1-478: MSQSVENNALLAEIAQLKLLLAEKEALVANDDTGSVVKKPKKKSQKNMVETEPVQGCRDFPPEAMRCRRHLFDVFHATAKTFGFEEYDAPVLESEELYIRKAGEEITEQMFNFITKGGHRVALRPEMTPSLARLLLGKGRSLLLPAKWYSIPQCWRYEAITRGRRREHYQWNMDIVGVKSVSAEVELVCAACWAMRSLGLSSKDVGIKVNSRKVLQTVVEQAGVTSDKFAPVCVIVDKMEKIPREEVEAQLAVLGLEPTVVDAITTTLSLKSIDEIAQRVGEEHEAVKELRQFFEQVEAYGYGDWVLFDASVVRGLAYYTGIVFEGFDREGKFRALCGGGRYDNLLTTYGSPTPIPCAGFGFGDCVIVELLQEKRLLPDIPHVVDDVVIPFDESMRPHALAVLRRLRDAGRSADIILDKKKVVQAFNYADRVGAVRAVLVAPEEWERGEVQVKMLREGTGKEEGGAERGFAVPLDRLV

Toxoplasma: 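Assay of Toxoplasma gondii numbers, read through their beta-galactosidase reporter with a colour substrate. Tested at 10 µM. Higher reads as fewer parasites (inferred from which compounds were picked for retests). Size under these conditions: about 67,000 compounds, about 260 of them at 50% or above in at least one test.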
TcHisRS: 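Histidine-tRNA ligase, Trypanosoma cruzi CL Brener (UniProt Q4DA54). Enzyme assay of histidyl-tRNA synthetase; the read-out is not stated. Tested at 30 µM. Higher reads as stronger inhibition (inferred: compounds with an IC50 in retests scored well above the rest). Size under these conditions: about 69,000 compounds, about 31 of them at 50% or above in at least one test.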

Each number is a percent effect as filed.
The controls that fix the scale are not given in the record; negative values are as filed.
This is an unselected part of the compounds tested.

{"smiles": "C[C@@H]1C[C@@H]2CCN(C(=O)c3ccncn3)C[C@H]2O1", "TcHisRS": 2.439}
{"smiles": "CN(Cc1ccccc1)C(=O)c1nc(S(C)(=O)=O)n2ccccc12", "Toxoplasma": 24.29, "TcHisRS": -3.053}
{"smiles": "Cc1ccc(OC2(C(=O)O)CCN(C/C=C/c3ccco3)CC2)cc1", "Toxoplasma": 7.362, "TcHisRS": -2.326}
{"smiles": "CCc1ccc(C(=O)O)cc1S(=O)(=O)Nc1c(C)ccn(C)c1=O", "Toxoplasma": -10.56, "TcHisRS": 22.22}
{"smiles": "Cc1noc([C@@H]2C[C@H](NS(=O)(=O)Cc3ccccc3)CN2C)n1", "Toxoplasma": 17.63, "TcHisRS": -0.4975}
{"smiles": "Clc1cncc(N2CCCC2c2nnc3n2CCCCC3)n1", "stereo": "stereo not given", "Toxoplasma": 12.9, "TcHisRS": 17}
{"smiles": "O=C(c1ccc(C2CCCN2)s1)N1CCC2(CCCO2)CC1", "stereo": "stereo not given", "Toxoplasma": 3.475, "TcHisRS": 1.117}
{"smiles": "Cc1ccccc1-n1cc(CN(C)C(=O)CC2C(=O)NCCN2C)cn1", "stereo": "stereo not given", "Toxoplasma": -13.17, "TcHisRS": 0.4292}
{"smiles": "N#CC(NC(=O)CNC(=O)c1ccccc1)c1ccsc1", "stereo": "stereo not given", "Toxoplasma": -33.8, "TcHisRS": 1.327}
{"smiles": "CCOCC(O)CN1CCN(C(=O)c2ccccc2F)CC1", "stereo": "stereo not given", "Toxoplasma": 12.6, "TcHisRS": 5.143}
{"smiles": "Clc1cccc(-c2noc(CCN3CCN(c4ccncc4)CC3)n2)c1", "Toxoplasma": 0.641, "TcHisRS": 4.712}
{"smiles": "O=C(c1coc(COc2ccccc2F)n1)N1CCC[C@H]1CO", "Toxoplasma": 1.528, "TcHisRS": 2.01}
{"smiles": "Cc1c(C2SCC(=O)Nc3c2c(O)nn3C2CCCC2)cnn1C", "stereo": "stereo not given", "Toxoplasma": 7.746, "TcHisRS": 2.439}
{"smiles": "Cc1cnc(N2C[C@H]3CN(Cc4csc(C)n4)C(=O)[C@H]3C2)nc1", "TcHisRS": 1.604}
{"smiles": "O=C(NCC1CC1)[C@H]1C[C@@H]2CCN(Cc3ccc4c(c3)OCO4)C[C@@H]2O1", "TcHisRS": 2.479}
{"smiles": "Nc1nc(CNc2ncnc3c2CCN(Cc2ccoc2)CC3)cs1", "TcHisRS": 20.69}
{"smiles": "CCc1nc(C2CCCN(C(=O)c3cccc4c3ccn4C)C2)no1", "stereo": "stereo not given", "Toxoplasma": 11.42, "TcHisRS": -1.149}
{"smiles": "COC1CN(C(=O)NC2CCCC2)CCC(=O)N(C)c2ccccc21", "stereo": "stereo not given", "Toxoplasma": -9.121, "TcHisRS": 10.11}
{"smiles": "O=C(c1cncc(NCC2COc3ccccc3C2)n1)N1CCCCC1", "stereo": "stereo not given", "Toxoplasma": 17.28, "TcHisRS": 6.957}
{"smiles": "Cn1ccnc1CN1CCC(CNS(=O)(=O)c2cccnc2)C1", "stereo": "stereo not given", "Toxoplasma": -3.176, "TcHisRS": 2.174}
{"smiles": "Cc1cccc(CN2CC[C@H]3OCC[C@@]3(C(=O)N3CCOCC3)C2)n1", "TcHisRS": 5.556}
{"smiles": "O=S(=O)(N1CCOCC1)N1CCCCC1CCc1ccc(O)cc1", "stereo": "stereo not given", "Toxoplasma": 3.436, "TcHisRS": 8.911}
{"smiles": "Cc1ccc(-c2noc([C@@H]3C[C@H](NC(=O)NC(C)C)CN3C)n2)cc1", "Toxoplasma": 10.55, "TcHisRS": 3.261}
{"smiles": "CCc1nc(CN2CCCN(C(=O)c3occc3C)CC2)cs1", "Toxoplasma": 3.928, "TcHisRS": 5}
{"smiles": "O=C(CCSc1ccc2c(c1)OCCO2)NCC1CCS(=O)(=O)C1", "stereo": "stereo not given", "Toxoplasma": -2.071, "TcHisRS": 2.632}
{"smiles": "CO[C@H]1CN(C(=O)c2ccc3oc(C)cc3c2)C[C@@]12CCCO2", "Toxoplasma": -11.12, "TcHisRS": 17.58}
{"smiles": "Cc1cc(C)c(CNC(=O)NCc2ccc(F)cc2)c(=O)[nH]1", "Toxoplasma": -14.33, "TcHisRS": -45.03}
{"smiles": "COc1ccc2c(c1)C1(CCN(Cc3nccs3)CC1)N(C)CC2", "TcHisRS": 6.557}
{"smiles": "CCN(CC)Cc1ccccc1NCc1c(C)noc1C", "Toxoplasma": 2.483, "TcHisRS": 1.087}
{"smiles": "CCNC(=O)CCC(=O)Nc1nc(C)c(Cc2ccc(F)cc2)s1", "Toxoplasma": 12.74, "TcHisRS": 11.22}
{"smiles": "CN(CCn1cccn1)S(=O)(=O)c1ccc(C#N)cc1", "Toxoplasma": -0.6952, "TcHisRS": 6.897}
{"smiles": "Cn1cncc1CN1CCC2(CC1)COCCN(S(C)(=O)=O)C2", "TcHisRS": 12.85}
{"smiles": "Cc1ccc(CN2CCCC3(CCN(S(C)(=O)=O)C3)C2)o1", "stereo": "stereo not given", "TcHisRS": 3.825}
{"smiles": "O=C(c1ccsc1)N1CCN(CC(O)c2cccc(F)c2)CC1", "stereo": "stereo not given", "Toxoplasma": -13.21, "TcHisRS": 3.448}
{"smiles": "Cc1noc(C)c1CN1C[C@@H]2COC[C@@H](CC(=O)N3CCCO3)[C@@H]2C1", "TcHisRS": 7.843}
{"smiles": "Cc1ccc(Nc2nccc(C3CN(C(C)C)C3)n2)nc1", "Toxoplasma": 17.05, "TcHisRS": 1.493}
{"smiles": "Cc1ccc(C)c2c(O)cc(CN3CCC(=O)NCC3C)nc12", "stereo": "stereo not given", "Toxoplasma": 19.53, "TcHisRS": 0}
{"smiles": "O=C(NCCNc1ncccn1)Nc1cc(C(F)(F)F)c[nH]c1=O", "Toxoplasma": 6.462, "TcHisRS": 1.916}
{"smiles": "Cc1n[nH]c(=O)c2c(NC(=O)CN3CCOCC3C)oc(C)c12", "stereo": "stereo not given", "Toxoplasma": 0.2245, "TcHisRS": 0.8333}
{"smiles": "[H][C@@]12CN(Cc3ccc(F)c(F)c3)C[C@]1([H])OCC(=O)N2", "Toxoplasma": -7.454}
{"smiles": "O=S(=O)(CCNCCn1cccn1)c1ccccc1", "Toxoplasma": -22.54, "TcHisRS": 6.098}
{"smiles": "Cc1cc(C)n(CCC(=O)N2CCCC(n3cncn3)C2)n1", "stereo": "stereo not given", "Toxoplasma": 11.83, "TcHisRS": -1.132}

Some entries from above, unchanged:

{"smiles": "O=C(NCCNc1ncccn1)Nc1cc(C(F)(F)F)c[nH]c1=O", "Toxoplasma": 6.462, "TcHisRS": 1.916}
{"smiles": "Cc1ccc(-c2noc([C@@H]3C[C@H](NC(=O)NC(C)C)CN3C)n2)cc1", "Toxoplasma": 10.55, "TcHisRS": 3.261}
{"smiles": "CCNC(=O)CCC(=O)Nc1nc(C)c(Cc2ccc(F)cc2)s1", "Toxoplasma": 12.74, "TcHisRS": 11.22}

Measurements from “University of Dundee, Small-Polar-MMV Screening Library” (2021), ChEMBL document CHEMBL3988442.